Test [1] has as its system L1210. The test is described as follows: In vitro inhibitory activity against murine leukemia L1210 cells. The format is functional. The conditions noted are these: Mus musculus, read-out: ED50 (the source's name).
Test [2] deals with Human alphaherpesvirus 1. Nature of the test: microbe, parasite or virus in culture.

Usually inhibition stands for the percentage by which the read-out fell short of the control. On to `COc1cc2c(c(OC)c1OC)-c1ccc(SC)c(=O)cc1C(N)CC2` (configuration not stated), for which, in test [1], the EC50 stood at 0.019 µM. This compound also yielded an inhibition at 30 µM in test [2] of 81%.
